Assay results as given in patent US20210139453A1, “(HETERO)ARYL SULFONAMIDE COMPOUND AND FORMULATION FOR CONTROLLING HARMFUL ORGANISMS” (Nippon Soda Co., Ltd., priority 2018, published 2021).
Some entries share one result that the patent states for a list of compounds.

Test system: Meloidogyne incognita
Assay: Efficacy test against Meloidogyne incognita (in vitro test)
Settings: 1.0 μL of 10,000 pm DMSO solution per 200 μL well; second-instar larvae (L2); 2 days at 15° C.

O=S(=O)(Nc1cc(C(F)(F)F)cnc1-n1ccc(C(F)(F)F)n1)C(F)(F)F [Compound 1-1, 1,1,1-trifluoro-N-[5-(trifluoromethyl)-2-[3-(trifluoromethyl)pyrazol-1-yl]-3-pyridyl]methanesulfonamide]
nematode mortality rate against Meloidogyne incognita: ≥ 80%
